Test results from publication PMC3829939.
Results are given in words; binding and its absence hold for the method and conditions named. Binding seen in cells or lysates may run through a third protein. Some entries that bind do so weakly or less than the wild type.

Protein sequences, listed by entry. Tags and fused reporters are not part of them.
UniProt Q15717: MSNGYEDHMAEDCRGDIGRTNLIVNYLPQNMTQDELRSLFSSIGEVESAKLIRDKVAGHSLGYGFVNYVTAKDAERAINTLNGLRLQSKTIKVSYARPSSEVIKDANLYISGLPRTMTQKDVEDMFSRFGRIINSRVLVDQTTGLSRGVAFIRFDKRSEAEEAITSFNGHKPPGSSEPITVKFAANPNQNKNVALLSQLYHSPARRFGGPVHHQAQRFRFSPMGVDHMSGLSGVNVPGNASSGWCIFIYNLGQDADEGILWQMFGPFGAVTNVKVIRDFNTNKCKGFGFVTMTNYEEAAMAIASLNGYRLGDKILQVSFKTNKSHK
UniProt P35222: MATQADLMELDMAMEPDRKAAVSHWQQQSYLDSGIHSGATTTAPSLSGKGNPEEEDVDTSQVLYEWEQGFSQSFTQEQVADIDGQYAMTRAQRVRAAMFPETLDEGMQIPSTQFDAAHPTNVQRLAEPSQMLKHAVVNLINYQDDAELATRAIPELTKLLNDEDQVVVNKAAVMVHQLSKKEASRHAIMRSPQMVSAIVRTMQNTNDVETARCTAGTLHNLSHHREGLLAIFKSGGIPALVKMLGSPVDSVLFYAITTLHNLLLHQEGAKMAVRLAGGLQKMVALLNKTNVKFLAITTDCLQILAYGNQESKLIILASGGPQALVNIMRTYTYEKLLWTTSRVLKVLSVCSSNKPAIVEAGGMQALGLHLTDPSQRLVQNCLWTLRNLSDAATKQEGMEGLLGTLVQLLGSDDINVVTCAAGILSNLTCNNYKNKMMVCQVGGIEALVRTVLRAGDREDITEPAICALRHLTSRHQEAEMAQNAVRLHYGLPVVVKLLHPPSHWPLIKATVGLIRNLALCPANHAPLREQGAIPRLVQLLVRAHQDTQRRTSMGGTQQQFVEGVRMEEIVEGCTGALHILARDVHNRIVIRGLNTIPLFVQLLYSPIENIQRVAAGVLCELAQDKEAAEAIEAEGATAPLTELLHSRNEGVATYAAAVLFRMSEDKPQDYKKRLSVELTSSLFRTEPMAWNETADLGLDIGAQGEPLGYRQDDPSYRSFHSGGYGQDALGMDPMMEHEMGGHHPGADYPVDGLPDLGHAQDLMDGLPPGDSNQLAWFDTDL

Target: HuR (human (endogenous in MCF7, MCF7-MS and MDA-MB-231)) (UniProt Q15717)
Test: co-IP; HuR immunoprecipitates blotted for beta-catenin; MCF7, MCF7-MS and MDA-MB-231 cells; CO-IP buffer (50mM tris-HCl pH 7.5, 150 mM NaCl, 5mM EDTA, 1% NP40) with protease inhibitors

- binding: binds
Substance: beta-catenin (from UniProt P35222 1-781)
